In publication PMC9944328:
Like-named read-outs stand apart in the source and are kept apart here. These are yes or no findings as the source states them, for the method shown. Binding seen in cells or lysates may run through a third protein. Some binding calls cover weakened binding; strength is not graded here.

Chains of the proteins cited; added tags and fusions are not shown. Lines headed by an entry give the natural chain unless they say otherwise; changes in a name come on top. A line that says so, or that is headed by a name, gives the form on record, which may keep a tag or linker.
UniProt P30874: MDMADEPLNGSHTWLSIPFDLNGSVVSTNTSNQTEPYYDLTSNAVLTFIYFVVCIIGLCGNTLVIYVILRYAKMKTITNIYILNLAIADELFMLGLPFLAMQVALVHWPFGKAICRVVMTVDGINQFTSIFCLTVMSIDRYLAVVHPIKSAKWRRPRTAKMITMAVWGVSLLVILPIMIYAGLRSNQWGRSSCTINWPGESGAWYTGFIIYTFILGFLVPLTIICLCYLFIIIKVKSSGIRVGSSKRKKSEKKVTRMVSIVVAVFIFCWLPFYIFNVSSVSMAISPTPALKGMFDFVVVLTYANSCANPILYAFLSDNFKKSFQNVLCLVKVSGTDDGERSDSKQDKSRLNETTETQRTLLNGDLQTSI
SSTR2 F265^6.44A (P30874, form named): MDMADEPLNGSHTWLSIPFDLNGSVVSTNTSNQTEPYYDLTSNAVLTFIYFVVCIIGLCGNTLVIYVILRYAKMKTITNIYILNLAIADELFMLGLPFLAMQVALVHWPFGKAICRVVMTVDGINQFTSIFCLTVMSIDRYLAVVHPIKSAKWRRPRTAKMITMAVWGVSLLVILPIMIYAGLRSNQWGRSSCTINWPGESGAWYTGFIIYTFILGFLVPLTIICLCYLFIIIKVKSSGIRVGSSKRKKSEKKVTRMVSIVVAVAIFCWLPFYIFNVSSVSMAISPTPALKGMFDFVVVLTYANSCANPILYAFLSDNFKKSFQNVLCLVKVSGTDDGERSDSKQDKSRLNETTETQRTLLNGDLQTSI
SSTR2 F208^5.38A (P30874, form named): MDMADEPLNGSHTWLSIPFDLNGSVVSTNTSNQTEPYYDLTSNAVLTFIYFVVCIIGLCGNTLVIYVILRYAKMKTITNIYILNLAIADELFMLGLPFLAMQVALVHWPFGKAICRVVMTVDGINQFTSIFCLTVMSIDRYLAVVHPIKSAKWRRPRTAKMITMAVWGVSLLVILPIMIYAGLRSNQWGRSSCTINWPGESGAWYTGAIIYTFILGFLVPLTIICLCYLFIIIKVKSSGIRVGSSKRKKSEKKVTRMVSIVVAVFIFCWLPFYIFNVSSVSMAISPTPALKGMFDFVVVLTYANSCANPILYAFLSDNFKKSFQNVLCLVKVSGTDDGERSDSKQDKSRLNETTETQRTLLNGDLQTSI
SSTR2 L99^2.60A (P30874, form named): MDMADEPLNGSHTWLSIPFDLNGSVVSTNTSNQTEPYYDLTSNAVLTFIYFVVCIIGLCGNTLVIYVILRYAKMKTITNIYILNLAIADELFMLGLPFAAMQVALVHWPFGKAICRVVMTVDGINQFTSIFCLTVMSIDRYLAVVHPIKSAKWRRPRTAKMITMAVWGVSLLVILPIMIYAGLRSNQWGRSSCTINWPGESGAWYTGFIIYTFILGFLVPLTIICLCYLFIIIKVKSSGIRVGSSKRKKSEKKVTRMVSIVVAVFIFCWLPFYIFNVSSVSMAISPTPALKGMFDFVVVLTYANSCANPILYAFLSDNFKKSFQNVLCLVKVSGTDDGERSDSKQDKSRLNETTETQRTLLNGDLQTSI
SSTR2 P220^5.50A (P30874, form named): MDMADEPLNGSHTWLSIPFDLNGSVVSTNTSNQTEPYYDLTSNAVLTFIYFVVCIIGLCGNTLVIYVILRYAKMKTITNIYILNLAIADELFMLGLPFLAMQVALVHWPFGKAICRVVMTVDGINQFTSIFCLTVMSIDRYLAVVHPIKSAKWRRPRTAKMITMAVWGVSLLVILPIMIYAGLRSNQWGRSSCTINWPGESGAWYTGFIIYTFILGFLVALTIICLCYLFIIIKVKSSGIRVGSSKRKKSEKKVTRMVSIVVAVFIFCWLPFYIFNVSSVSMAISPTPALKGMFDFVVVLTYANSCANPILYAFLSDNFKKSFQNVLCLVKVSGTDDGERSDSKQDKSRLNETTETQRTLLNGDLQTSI
SSTR2 Q102^2.63A (P30874, form named): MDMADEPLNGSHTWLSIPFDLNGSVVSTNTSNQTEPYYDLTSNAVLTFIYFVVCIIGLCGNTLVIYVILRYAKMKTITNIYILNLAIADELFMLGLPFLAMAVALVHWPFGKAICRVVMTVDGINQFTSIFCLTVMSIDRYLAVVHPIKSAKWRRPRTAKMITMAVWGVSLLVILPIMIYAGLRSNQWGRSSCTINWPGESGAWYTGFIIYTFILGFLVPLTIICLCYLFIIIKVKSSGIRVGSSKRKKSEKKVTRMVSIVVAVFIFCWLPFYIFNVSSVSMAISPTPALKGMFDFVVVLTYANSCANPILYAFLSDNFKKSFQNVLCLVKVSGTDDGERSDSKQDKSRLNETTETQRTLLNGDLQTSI
SSTR2 Q126^3.36A (P30874, form named): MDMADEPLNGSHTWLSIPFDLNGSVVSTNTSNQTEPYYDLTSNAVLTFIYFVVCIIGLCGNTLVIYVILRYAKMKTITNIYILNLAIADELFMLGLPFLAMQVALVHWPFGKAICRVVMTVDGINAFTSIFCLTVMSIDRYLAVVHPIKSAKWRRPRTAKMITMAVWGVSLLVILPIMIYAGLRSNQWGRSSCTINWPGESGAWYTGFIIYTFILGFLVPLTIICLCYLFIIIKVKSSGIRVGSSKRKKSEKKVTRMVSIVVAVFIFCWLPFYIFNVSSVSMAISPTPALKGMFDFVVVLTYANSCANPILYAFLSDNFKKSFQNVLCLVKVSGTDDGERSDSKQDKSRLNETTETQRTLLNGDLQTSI
SSTR2 I130^3.40A (P30874, form named): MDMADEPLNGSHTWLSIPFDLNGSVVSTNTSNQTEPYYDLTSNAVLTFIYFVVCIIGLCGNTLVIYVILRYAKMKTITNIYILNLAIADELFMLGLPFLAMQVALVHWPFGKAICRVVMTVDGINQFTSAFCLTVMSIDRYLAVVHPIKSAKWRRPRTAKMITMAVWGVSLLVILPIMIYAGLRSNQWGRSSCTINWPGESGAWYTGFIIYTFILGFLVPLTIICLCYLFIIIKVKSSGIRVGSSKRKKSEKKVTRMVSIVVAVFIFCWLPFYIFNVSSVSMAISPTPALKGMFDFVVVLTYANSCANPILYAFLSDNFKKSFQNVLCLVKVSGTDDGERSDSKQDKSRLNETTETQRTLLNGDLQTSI
SSTR2 N276^6.55A-SmBiT (P30874, form named): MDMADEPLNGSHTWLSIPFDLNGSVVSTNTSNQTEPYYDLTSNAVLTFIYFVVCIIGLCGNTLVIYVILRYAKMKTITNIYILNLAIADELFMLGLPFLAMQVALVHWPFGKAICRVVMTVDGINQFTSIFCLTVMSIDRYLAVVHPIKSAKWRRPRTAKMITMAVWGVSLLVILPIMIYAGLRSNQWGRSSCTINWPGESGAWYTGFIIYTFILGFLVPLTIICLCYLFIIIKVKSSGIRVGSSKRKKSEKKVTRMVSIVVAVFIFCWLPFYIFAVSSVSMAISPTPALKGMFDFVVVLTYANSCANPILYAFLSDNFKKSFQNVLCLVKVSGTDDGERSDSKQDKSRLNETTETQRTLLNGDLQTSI
SSTR2 F294^7.35A-SmBiT (P30874, form named): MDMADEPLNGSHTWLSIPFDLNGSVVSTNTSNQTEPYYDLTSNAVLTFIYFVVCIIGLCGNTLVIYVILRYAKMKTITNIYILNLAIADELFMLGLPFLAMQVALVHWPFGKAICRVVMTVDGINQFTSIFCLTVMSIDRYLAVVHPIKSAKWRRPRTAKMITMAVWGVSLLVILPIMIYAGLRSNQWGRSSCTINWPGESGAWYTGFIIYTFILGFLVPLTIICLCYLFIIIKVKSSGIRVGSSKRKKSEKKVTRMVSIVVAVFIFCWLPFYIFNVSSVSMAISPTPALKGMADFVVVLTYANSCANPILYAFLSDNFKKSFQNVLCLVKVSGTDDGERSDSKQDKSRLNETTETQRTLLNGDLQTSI
SSTR2 I284^ECL3A-SmBiT (P30874, form named): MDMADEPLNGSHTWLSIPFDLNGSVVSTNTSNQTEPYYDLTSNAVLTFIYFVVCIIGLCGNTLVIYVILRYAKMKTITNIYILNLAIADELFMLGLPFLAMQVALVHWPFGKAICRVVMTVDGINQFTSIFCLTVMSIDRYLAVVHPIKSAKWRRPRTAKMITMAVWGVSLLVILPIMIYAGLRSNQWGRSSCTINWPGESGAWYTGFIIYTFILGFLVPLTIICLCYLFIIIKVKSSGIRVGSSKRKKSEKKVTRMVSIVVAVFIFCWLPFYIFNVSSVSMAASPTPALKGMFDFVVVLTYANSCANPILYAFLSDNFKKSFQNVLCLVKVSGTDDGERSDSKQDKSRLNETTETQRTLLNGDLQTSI
SSTR2 K291^7.32A-SmBiT (P30874, form named): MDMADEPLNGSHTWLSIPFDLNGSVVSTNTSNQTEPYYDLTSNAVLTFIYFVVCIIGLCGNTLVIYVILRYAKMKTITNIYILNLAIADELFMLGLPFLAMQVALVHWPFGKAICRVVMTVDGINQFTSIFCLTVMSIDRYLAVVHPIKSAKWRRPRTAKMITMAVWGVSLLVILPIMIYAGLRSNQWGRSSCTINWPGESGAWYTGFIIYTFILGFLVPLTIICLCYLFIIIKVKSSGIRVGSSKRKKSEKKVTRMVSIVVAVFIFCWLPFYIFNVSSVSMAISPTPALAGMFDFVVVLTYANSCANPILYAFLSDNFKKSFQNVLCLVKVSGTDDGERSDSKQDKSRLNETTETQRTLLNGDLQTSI
SSTR2 Y302^7.43A-SmBiT (P30874, form named): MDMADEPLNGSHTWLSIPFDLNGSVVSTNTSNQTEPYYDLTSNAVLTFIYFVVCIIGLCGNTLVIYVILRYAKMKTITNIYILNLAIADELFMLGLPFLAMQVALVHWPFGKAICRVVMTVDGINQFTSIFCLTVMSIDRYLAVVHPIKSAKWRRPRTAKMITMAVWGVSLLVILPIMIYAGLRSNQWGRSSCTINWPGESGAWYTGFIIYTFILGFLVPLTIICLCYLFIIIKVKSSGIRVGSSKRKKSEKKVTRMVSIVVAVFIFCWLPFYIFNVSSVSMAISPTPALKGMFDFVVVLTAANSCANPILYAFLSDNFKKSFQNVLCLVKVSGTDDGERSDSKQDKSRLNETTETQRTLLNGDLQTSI
UniProt P49407: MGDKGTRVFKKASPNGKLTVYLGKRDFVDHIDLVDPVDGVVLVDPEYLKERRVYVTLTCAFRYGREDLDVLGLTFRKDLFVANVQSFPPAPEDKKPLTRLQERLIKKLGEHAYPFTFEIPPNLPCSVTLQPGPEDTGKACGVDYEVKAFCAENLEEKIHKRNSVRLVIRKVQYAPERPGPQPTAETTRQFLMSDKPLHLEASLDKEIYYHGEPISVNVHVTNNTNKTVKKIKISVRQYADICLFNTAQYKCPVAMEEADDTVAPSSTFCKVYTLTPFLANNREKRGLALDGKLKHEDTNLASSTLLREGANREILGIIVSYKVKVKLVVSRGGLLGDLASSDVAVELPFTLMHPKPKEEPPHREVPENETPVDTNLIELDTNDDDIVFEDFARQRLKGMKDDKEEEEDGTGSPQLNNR

Key:
Assay in all cases: split reporter
SSTR2 F265^6.44A (human) [1] = target: SSTR2 F265^6.44A (human) (UniProt P30874)
SSTR2 F208^5.38A (human) = SSTR2 F208^5.38A (human) (UniProt P30874)
SSTR2 L99^2.60A (human) = SSTR2 L99^2.60A (human) (UniProt P30874)
SSTR2 P220^5.50A (human) = SSTR2 P220^5.50A (human) (UniProt P30874)
SSTR2 Q102^2.63A (human) [2] = target: SSTR2 Q102^2.63A (human) (UniProt P30874)
SSTR2 Q126^3.36A (human) = SSTR2 Q126^3.36A (human) (UniProt P30874)
SSTR2 I130^3.40A (human) [3] = target: SSTR2 I130^3.40A (human) (UniProt P30874)
SSTR2 F265^6.44A (human) [4] = target: SSTR2 F265^6.44A (human) (UniProt P30874); remark: listed apart in the source
SSTR2 Q102^2.63A (human) [5] = target: SSTR2 Q102^2.63A (human) (UniProt P30874); remark: listed apart in the source
SSTR2 I130^3.40A (human) [6] = target: SSTR2 I130^3.40A (human) (UniProt P30874); remark: listed apart in the source
[7] = target: SSTR2-SmBiT, wild type (human full-length SSTR2) (human) (UniProt P30874)
[8] = target: SSTR2 N276^6.55A-SmBiT (human) (UniProt P30874)
[9] = target: SSTR2 F294^7.35A-SmBiT (human) (UniProt P30874)
[10] = target: SSTR2 I284^ECL3A-SmBiT (human) (UniProt P30874)
[11] = target: SSTR2 K291^7.32A-SmBiT (human) (UniProt P30874)
[12] = target: SSTR2 Y302^7.43A-SmBiT (human) (UniProt P30874)
[13] = target: SSTR2 I284^ECL3A-SmBiT (human) (UniProt P30874); remark: listed apart in the source
[14] = target: SSTR2 Y302^7.43A-SmBiT (human) (UniProt P30874); remark: listed apart in the source
[15] = target: SSTR2-SmBiT, wild type (human full-length SSTR2) (human) (UniProt P30874); remark: listed apart in the source
[16] = target: SSTR2 K291^7.32A-SmBiT (human) (UniProt P30874); remark: listed apart in the source

binding (SSTR2 F265^6.44A (human) [1])	binding (SSTR2 F208^5.38A (human))	binding (SSTR2 L99^2.60A (human))	binding (SSTR2 P220^5.50A (human))	binding (SSTR2 Q102^2.63A (human) [2])	binding (SSTR2 Q126^3.36A (human))	binding (SSTR2 I130^3.40A (human) [3])	binding (SSTR2 F265^6.44A (human) [4])	binding (SSTR2 Q102^2.63A (human) [5])	binding (SSTR2 I130^3.40A (human) [6])	binding [7]	binding [8]	binding [9]	binding [10]	binding [11]	binding [12]	binding [13]	binding [14]	binding [15]	binding [16]	Substance
binds	binds	binds	binds	binds	binds	binds	binds	binds	binds											human full-length β-arrestin 1 with LgBiT at the N-terminus (from UniProt P49407 1-418)
										binds	binds	binds	binds	binds	binds	binds	binds	binds	binds	LgBiT-β-arrestin 1 (human full-length β-arrestin 1) (from UniProt P49407 1-418)
